Measured values from ChEMBL document CHEMBL1149382 (J Med Chem, 2006).
pIC50: −log10 of the molar value.

Tested on: Trypanosoma cruzi
Assay: Antiprotozoal activity against Trypanosoma cruzi epimastigotes
Assay type: functional, organism-based

With CCCCc1oc2ccccc2c1C(=O)c1cc(I)c(OCCN(CC)CC)c(I)c1 [AMIODARONE] the pIC50 was 5.05.
